Reference: PubChem BioAssay AID1259425 (University of Nebraska Medical Center, 2018)
Test: 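Find knockdowns that reproduce the gene expression pattern seen when KSR1 is lost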 (primary screen). System: HCT116 human colon cancer cells. Reagent: siRNA pool against human genes, 50 nM siRNA. Measured: 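After 50 nM siRNA pool, branched-DNA assay measures six marker transcripts per well, minus blank, normalised to the geometric mean of two housekeeping transcripts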. Direction: BNIP3L mRNA: higher = more BNIP3L transcript after knockdown.
The deposit covers about 14,000 reagents; below is a part drawn at random. Further read-outs or replicates are left out here. Not stated in the record: the time to read-out.

LOXL1
- BNIP3L mRNA, set 1: 0.208

EFR3B
- BNIP3L mRNA, set 1: 0.187

HLA-DMB
- BNIP3L mRNA, set 1: 0.0826

UQCR10
- BNIP3L mRNA, set 1: 0.192

EFNA3
- BNIP3L mRNA, set 1: 0.0777

Looked up above:
LOXL1, BNIP3L mRNA, set 1: 0.208
UQCR10, BNIP3L mRNA, set 1 → 0.192

Next entries:
CRISP1
- BNIP3L mRNA, set 1: 0.11

PPP2R5E
- BNIP3L mRNA, set 1: 0.0389

HES1
- BNIP3L mRNA, set 1: 0.127

FHL3
- BNIP3L mRNA, set 1: 0.113

NAMPT
- BNIP3L mRNA, set 1: 0.0748

DDN
- BNIP3L mRNA, set 1: 0.0909

FRAT1
- BNIP3L mRNA, set 1: 0.0665
